Results published in the supplement of paper PMC10849652.
This is one part of the list.

Protein sequences, listed by entry. Tags and fused reporters are not part of them. Lines headed by an entry give the natural chain unless they say otherwise; changes in a name come on top.
UniProt Q9BX95: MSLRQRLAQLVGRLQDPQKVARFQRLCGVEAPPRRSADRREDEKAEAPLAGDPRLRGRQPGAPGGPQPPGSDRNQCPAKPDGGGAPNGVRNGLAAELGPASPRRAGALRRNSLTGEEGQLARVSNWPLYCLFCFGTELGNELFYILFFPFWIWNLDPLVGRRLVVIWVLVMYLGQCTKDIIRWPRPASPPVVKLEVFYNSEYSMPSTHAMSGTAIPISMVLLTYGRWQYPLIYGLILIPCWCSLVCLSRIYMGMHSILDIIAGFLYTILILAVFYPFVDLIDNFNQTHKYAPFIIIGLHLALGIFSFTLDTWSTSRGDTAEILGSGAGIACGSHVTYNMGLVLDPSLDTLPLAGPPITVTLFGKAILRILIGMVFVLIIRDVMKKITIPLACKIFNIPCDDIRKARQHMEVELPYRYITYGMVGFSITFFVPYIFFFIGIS
UniProt Q9UHW9: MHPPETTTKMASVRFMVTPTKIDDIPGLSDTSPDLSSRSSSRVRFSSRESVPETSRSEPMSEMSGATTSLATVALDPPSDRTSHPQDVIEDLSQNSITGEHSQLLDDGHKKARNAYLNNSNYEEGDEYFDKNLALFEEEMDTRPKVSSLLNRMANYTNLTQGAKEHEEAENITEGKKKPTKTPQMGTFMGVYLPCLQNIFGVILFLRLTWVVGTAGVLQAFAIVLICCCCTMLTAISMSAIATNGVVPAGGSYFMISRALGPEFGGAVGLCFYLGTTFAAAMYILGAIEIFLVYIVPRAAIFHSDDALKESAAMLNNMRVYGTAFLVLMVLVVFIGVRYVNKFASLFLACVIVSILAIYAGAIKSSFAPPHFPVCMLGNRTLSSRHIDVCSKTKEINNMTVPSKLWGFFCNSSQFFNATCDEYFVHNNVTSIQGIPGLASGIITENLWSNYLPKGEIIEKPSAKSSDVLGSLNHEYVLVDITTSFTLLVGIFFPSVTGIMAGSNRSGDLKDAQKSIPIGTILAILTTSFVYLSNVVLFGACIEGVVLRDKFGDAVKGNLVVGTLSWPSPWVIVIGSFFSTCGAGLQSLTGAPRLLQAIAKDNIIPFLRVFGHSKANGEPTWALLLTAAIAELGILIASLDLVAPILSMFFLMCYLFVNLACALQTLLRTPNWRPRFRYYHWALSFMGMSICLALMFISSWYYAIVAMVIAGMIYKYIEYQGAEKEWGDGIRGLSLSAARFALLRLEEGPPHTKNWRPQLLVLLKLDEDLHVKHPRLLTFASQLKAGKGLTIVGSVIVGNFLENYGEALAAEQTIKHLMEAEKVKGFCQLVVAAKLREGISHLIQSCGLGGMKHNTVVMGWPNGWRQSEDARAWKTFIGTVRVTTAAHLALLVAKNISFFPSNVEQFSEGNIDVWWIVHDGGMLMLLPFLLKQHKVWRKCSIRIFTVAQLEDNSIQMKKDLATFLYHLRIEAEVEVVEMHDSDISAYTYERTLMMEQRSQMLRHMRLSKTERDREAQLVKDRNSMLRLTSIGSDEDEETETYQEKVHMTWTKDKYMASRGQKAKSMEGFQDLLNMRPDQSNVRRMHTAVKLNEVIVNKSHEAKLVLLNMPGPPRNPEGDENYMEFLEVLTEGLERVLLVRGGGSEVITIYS
UniProt Q9BWJ5: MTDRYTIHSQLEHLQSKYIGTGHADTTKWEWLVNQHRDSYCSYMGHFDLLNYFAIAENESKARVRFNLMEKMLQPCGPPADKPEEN
UniProt Q149N8: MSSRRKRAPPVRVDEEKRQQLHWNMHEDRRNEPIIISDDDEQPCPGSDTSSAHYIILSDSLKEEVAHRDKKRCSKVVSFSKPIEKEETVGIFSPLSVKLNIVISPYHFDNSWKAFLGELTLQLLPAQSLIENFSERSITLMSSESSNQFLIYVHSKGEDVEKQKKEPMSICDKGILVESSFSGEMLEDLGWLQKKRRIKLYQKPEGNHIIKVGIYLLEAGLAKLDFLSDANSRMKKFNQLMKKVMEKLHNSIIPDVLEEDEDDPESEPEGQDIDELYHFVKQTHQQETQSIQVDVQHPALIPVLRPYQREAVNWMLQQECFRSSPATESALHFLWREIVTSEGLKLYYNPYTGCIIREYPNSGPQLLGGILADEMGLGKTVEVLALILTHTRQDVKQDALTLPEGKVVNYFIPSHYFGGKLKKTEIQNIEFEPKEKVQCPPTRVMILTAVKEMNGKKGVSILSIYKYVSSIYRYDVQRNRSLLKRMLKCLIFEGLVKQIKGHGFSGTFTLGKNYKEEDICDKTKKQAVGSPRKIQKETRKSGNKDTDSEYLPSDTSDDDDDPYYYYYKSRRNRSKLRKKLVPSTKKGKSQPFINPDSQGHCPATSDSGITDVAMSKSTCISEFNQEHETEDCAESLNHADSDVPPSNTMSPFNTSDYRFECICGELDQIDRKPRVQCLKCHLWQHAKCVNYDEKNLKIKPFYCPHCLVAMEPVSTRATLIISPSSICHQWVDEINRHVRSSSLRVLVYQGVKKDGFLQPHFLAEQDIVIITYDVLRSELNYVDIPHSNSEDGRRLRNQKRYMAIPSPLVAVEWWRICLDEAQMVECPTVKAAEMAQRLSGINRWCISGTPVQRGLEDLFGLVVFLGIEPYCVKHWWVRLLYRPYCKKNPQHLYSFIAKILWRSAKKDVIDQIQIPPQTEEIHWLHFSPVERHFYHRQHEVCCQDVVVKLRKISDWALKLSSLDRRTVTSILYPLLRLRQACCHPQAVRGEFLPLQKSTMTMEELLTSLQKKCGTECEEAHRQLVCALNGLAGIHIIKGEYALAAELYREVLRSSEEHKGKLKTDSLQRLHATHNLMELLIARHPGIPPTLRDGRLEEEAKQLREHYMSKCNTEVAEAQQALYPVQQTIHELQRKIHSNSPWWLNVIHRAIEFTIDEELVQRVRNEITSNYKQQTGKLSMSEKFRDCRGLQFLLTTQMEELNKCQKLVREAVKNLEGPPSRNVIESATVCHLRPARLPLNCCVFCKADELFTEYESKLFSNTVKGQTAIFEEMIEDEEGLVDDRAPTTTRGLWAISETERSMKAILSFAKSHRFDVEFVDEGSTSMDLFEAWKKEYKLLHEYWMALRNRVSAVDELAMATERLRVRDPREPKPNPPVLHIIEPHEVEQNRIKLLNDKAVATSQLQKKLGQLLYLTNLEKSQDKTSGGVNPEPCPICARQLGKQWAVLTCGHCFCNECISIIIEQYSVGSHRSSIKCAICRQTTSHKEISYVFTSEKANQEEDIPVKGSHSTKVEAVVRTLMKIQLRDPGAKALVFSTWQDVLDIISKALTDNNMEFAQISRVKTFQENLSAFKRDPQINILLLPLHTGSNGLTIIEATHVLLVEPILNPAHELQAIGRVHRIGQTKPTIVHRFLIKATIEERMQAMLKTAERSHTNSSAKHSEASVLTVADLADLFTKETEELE
UniProt Q9UP95: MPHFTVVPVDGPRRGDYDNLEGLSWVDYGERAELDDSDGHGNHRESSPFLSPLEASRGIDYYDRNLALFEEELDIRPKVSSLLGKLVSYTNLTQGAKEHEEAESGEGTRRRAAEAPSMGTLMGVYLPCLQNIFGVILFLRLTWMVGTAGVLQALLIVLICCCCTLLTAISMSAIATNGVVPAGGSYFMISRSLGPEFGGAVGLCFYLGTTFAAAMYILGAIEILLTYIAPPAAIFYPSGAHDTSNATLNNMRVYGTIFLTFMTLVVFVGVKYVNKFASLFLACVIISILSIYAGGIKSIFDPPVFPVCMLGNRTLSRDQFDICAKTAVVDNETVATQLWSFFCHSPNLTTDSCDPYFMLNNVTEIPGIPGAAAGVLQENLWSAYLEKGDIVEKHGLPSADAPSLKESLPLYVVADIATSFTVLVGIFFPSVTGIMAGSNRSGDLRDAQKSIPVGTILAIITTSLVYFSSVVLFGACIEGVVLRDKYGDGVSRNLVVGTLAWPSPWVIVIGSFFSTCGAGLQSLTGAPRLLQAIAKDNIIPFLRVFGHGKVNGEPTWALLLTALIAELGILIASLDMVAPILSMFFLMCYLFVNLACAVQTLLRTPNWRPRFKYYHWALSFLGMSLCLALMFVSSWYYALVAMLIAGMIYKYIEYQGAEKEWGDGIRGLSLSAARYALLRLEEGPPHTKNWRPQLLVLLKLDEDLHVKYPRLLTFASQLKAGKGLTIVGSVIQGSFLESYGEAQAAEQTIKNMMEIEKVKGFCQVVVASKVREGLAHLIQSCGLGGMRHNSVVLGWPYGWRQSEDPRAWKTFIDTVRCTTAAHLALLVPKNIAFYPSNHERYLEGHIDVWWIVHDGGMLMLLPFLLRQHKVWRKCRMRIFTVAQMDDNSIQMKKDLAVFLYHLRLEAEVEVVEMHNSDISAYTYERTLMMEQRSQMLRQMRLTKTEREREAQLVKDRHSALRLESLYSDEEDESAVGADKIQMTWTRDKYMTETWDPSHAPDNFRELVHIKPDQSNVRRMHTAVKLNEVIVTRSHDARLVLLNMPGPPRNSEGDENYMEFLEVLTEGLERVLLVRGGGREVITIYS
UniProt Q15393: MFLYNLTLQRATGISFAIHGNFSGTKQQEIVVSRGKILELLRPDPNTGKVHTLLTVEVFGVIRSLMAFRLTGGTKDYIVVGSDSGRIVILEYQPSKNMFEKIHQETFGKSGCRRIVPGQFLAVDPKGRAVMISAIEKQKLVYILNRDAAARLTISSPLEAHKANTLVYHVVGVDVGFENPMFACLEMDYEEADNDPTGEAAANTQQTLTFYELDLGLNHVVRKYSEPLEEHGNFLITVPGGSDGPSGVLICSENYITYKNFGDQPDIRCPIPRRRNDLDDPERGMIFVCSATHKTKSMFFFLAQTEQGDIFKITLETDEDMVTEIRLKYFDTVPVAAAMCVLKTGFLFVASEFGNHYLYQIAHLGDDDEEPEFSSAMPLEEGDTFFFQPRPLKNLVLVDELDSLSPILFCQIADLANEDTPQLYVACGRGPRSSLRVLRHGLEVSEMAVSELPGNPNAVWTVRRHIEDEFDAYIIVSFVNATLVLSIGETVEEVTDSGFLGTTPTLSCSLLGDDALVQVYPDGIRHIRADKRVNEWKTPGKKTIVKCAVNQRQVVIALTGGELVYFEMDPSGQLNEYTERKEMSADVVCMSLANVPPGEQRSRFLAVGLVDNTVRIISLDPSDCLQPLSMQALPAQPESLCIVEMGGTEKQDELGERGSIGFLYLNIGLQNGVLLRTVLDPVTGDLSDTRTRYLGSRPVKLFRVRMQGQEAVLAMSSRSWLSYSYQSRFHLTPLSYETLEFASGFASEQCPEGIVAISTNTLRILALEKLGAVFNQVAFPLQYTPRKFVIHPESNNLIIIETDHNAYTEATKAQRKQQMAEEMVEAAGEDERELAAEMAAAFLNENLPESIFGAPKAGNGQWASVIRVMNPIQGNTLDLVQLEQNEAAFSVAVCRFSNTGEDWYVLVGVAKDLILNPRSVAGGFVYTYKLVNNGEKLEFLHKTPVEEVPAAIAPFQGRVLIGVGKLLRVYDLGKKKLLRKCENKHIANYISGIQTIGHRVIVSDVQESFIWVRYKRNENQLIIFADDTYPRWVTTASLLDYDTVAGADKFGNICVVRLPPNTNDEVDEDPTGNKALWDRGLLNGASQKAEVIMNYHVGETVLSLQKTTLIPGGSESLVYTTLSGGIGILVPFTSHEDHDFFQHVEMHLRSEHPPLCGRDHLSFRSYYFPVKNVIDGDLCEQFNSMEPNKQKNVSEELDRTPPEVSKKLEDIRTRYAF
UniProt Q96BD8: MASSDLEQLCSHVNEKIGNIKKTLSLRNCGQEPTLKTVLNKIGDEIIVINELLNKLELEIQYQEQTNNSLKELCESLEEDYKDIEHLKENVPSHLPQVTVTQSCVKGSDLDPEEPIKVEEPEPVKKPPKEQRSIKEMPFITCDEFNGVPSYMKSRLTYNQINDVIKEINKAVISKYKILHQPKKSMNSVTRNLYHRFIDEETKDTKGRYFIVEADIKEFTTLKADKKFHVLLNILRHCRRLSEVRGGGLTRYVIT
UniProt Q8WUM9: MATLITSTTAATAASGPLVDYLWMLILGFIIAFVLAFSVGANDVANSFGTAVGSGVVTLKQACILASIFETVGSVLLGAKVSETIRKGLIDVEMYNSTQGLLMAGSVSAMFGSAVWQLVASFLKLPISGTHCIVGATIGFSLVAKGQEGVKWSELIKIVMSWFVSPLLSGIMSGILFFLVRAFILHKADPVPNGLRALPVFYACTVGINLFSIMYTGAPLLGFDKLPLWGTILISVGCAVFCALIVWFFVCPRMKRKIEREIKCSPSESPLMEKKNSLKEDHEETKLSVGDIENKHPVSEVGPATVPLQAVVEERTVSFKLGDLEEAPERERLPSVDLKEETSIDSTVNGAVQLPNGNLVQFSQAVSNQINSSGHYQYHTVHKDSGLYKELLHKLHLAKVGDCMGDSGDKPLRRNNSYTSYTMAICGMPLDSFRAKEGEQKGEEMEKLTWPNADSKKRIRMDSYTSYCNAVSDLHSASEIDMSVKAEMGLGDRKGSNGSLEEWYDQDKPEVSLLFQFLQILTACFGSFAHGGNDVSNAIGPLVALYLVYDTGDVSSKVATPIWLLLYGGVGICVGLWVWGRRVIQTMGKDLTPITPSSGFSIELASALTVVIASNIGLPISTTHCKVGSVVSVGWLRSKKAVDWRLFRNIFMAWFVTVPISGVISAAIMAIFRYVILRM

Tests used:
Test in all cases: log2 fold change, soluble protein after heating vs DMSO (PISA); higher = thermal stabilisation; K562 lysate, 10 uM; active = over 0.2 and 3.5 SD of the protein, either way, in both replicates (recomputed)
lapatinib = compound: CS(=O)(=O)CCNCc1ccc(-c2ccc3ncnc(Nc4ccc(OCc5cccc(F)c5)c(Cl)c4)c3c2)o1 [lapatinib]
In short: (§1)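 Following dounce homogenisation of K562 pellets in PBS pH 7.4 with 1 mM MgCl2, crude extract at 1 mg/mL protein was incubated for 30 min with 10 μM compound. Aliquots were then heated for 3 min over 48°C-58°C and pooled, NP-40 was added to 0.5% at 4°C, and soluble protein was recovered as the supernatant at 21,000xg for 90 min. Channel-sum-equalised TMTpro 16plex LC-MS/MS quantified this protein. Each value, from duplicates, is a log-two fold change in thermal stability relative to solvent controls.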

pictilisib = compound: CS(=O)(=O)N1CCN(Cc2cc3nc(-c4cccc5[nH]ncc45)nc(N4CCOCC4)c3s2)CC1 [pictilisib]
In short: as §1

crizotinib = compound: C[C@@H](Oc1cc(-c2cnn(C3CCNCC3)c2)cnc1N)c1c(Cl)ccc(F)c1Cl [crizotinib]
In short: as §1

[1] = compound: C[C@H](C1=CC=C(C=C1)C(=O)NC2=C3C=CNC3=NC=C2)N
In short: as §1

duvelisib = compound: C[C@H](Nc1ncnc2nc[nH]c12)c1cc2cccc(Cl)c2c(=O)n1-c1ccccc1 [duvelisib]
In short: as §1

gandotinib = compound: Cc1cc(Nc2cc(CN3CCOCC3)c3nc(C)c(Cc4ccc(Cl)cc4F)n3n2)n[nH]1 [gandotinib]
In short: as §1

tozasertib = compound: Cc1cc(Nc2cc(N3CCN(C)CC3)nc(Sc3ccc(NC(=O)C4CC4)cc3)n2)n[nH]1 [tozasertib]
In short: as §1

doramapimod = compound: Cc1ccc(-n2nc(C(C)(C)C)cc2NC(=O)Nc2ccc(OCCN3CCOCC3)c3ccccc23)cc1 [doramapimod]
In short: as §1

bafetinib = compound: Cc1ccc(NC(=O)c2ccc(CN3CC[C@H](N(C)C)C3)c(C(F)(F)F)c2)cc1Nc1nccc(-c2cncnc2)n1 [bafetinib]
In short: as §1

[2] = compound: Cc1cccc(CC(=O)N2CCc3c2ccc(-c2cn(C)c4ncnc(N)c24)c3F)n1
In short: as §1

Measured: log2 fold change

SGPP1 (UniProt Q9BX95)
inactive: lapatinib -0.045 | pictilisib -0.126 | crizotinib 0.115 | [1] 0.106 | duvelisib -0.077 | gandotinib -0.049 | tozasertib 0.001 | doramapimod -0.092 | bafetinib 0.276 | [2] -0.07

SFN (UniProt P31947)
active: [1] 0.347
inactive: lapatinib 0.018 | pictilisib 0.117 | crizotinib 0.055 | duvelisib -0.029 | gandotinib -0.043 | tozasertib 0.006 | doramapimod 0.019 | bafetinib 0.047 | [2] -0.117

SGF29 (UniProt Q96ES7)
inactive: lapatinib -0.009 | pictilisib -0.003 | crizotinib -0.013 | [1] -0.029 | duvelisib -0.06 | gandotinib 0.037 | tozasertib -0.038 | doramapimod 0.028 | bafetinib 0.011 | [2] -0.001

SH3BP1 (UniProt Q9Y3L3)
inactive: lapatinib -0.029 | pictilisib -0.06 | crizotinib -0.007 | [1] -0.017 | duvelisib 0.006 | gandotinib -0.008 | tozasertib 0.044 | doramapimod 0.03 | bafetinib -0.024 | [2] 0.042

SLC20A2 (UniProt Q08357)
inactive: lapatinib 0.01 | pictilisib -0.046 | crizotinib 0.116 | [1] 0.006 | duvelisib 0.01 | gandotinib -0.018 | tozasertib -0.098 | doramapimod 0.001 | bafetinib 0.014 | [2] -0.039

SLC11A1, A0A0A0MTL3
inactive: lapatinib -0.112

SERINC1 (UniProt Q9NRX5)
inactive: lapatinib -0.088 | pictilisib -0.076 | crizotinib -0.045 | [1] -0.232 | duvelisib -0.012 | gandotinib 0.132 | tozasertib -0.025 | doramapimod 0.08 | bafetinib 0.007 | [2] 0.112

Reprinted at random: two entries already listed.
SH3BP1 (UniProt Q9Y3L3)
inactive: lapatinib -0.029 | pictilisib -0.06 | crizotinib -0.007 | [1] -0.017 | duvelisib 0.006 | gandotinib -0.008 | tozasertib 0.044 | doramapimod 0.03 | bafetinib -0.024 | [2] 0.042

SLC20A2 (UniProt Q08357)
inactive: lapatinib 0.01 | pictilisib -0.046 | crizotinib 0.116 | [1] 0.006 | duvelisib 0.01 | gandotinib -0.018 | tozasertib -0.098 | doramapimod 0.001 | bafetinib 0.014 | [2] -0.039

(listing goes on)

SERPINB1 (UniProt P30740)
inactive: lapatinib -0.005 | pictilisib -0.019 | crizotinib 0.025 | [1] -0.04 | duvelisib -0.004 | gandotinib 0.008 | tozasertib -0.001 | doramapimod -0.027 | bafetinib -0.022 | [2] -0.001

SLC12A6 (UniProt Q9UHW9)
inactive: lapatinib 0.037 | pictilisib -0.046 | crizotinib -0.025 | [1] 0.008 | duvelisib 0.015 | gandotinib -0.028 | tozasertib -0.002 | doramapimod 0.027 | bafetinib -0.011 | [2] 0.034

SHROOM1 (UniProt Q2M3G4)
inactive: lapatinib 0.012 | pictilisib -0.016 | crizotinib 0 | [1] 0.044 | duvelisib -0.02 | gandotinib -0.05 | tozasertib 0.001 | doramapimod 0.009 | bafetinib -0.128 | [2] -0.036

SF3B5 (UniProt Q9BWJ5)
inactive: lapatinib -0.006 | pictilisib -0.039 | crizotinib -0.062 | [1] 0.175 | duvelisib -0.012 | gandotinib -0.061 | tozasertib -0.042 | doramapimod -0.003 | bafetinib -0.089 | [2] -0.098

SHPRH (UniProt Q149N8)
inactive: lapatinib -0.068 | pictilisib 0.008 | crizotinib -0.001 | [1] -0.194 | duvelisib -0.008 | gandotinib -0.176 | tozasertib 0.204 | doramapimod 0.002 | bafetinib -0.092 | [2] -0.057

SLC16A1 (UniProt P53985)
active: [1] -0.341 | [2] 0.246
inactive: lapatinib -0.009 | pictilisib 0.019 | crizotinib 0.006 | duvelisib -0.011 | gandotinib 0.22 | tozasertib -0.008 | doramapimod -0.017 | bafetinib -0.041

SF3B6 (UniProt Q9Y3B4)
inactive: lapatinib -0.01 | pictilisib -0.083 | crizotinib -0.008 | [1] 0.009 | duvelisib 0.059 | gandotinib -0.069 | tozasertib -0.188 | doramapimod 0.047 | bafetinib -0.009 | [2] -0.058

SF3B2 (UniProt Q13435)
inactive: lapatinib -0.008 | pictilisib 0 | crizotinib 0.014 | [1] -0.072 | duvelisib -0.002 | gandotinib -0.006 | tozasertib -0.006 | doramapimod -0.009 | bafetinib -0.013 | [2] 0.024

SLC12A4 (UniProt Q9UP95)
inactive: lapatinib -0.011 | pictilisib -0.035 | crizotinib -0.061 | [1] 0.035 | duvelisib -0.037 | gandotinib -0.035 | tozasertib 0.001 | doramapimod 0.068 | bafetinib 0.046 | [2] -0.04

SETD1A (UniProt O15047)
inactive: lapatinib -0.053 | pictilisib -0.045 | crizotinib -0.019 | [1] 0.052 | duvelisib 0.037 | gandotinib -0.044 | tozasertib 0.003 | doramapimod 0.005 | bafetinib -0.051 | [2] -0.011

SETD2 (UniProt Q9BYW2)
inactive: lapatinib -0.01 | pictilisib 0.028 | crizotinib -0.002 | [1] -0.045 | duvelisib 0.004 | gandotinib 0.036 | tozasertib -0.011 | doramapimod 0.024 | bafetinib -0.038 | [2] 0.079

SF3B3 (UniProt Q15393)
inactive: lapatinib -0.025 | pictilisib -0.017 | crizotinib -0.015 | [1] -0.06 | duvelisib 0.041 | gandotinib 0.019 | tozasertib -0.013 | doramapimod 0.029 | bafetinib -0.025 | [2] 0.007

SLC1A4 (UniProt P43007)
inactive: lapatinib -0.032 | pictilisib 0.006 | crizotinib 0.056 | [1] -0.042 | duvelisib 0.017 | gandotinib 0.029 | tozasertib 0.004 | doramapimod 0.048 | bafetinib -0.001 | [2] -0.018

SHTN1 (UniProt A0MZ66)
inactive: lapatinib -0.013 | pictilisib -0.006 | crizotinib 0.02 | [1] -0.017 | duvelisib -0.006 | gandotinib -0.003 | tozasertib 0.005 | doramapimod 0.007 | bafetinib -0.017 | [2] -0.014

SLC15A4 (UniProt Q8N697)
inactive: lapatinib -0.058 | pictilisib -0.037 | crizotinib 0.002 | [1] -0.051 | duvelisib 0.03 | gandotinib 0.054 | tozasertib 0.057 | doramapimod 0.123 | bafetinib 0 | [2] -0.132

SKA3 (UniProt Q8IX90)
inactive: lapatinib 0.009 | pictilisib -0.022 | crizotinib -0.029 | [1] -0.008 | duvelisib -0.022 | gandotinib -0.011 | tozasertib -0.008 | doramapimod 0.002 | bafetinib 0.027 | [2] 0.034

SFR1 isoform 2 (UniProt Q86XK3)
inactive: lapatinib 0.001 | pictilisib 0.053 | crizotinib 0.006 | [1] 0.09 | duvelisib 0.043 | gandotinib 0.169 | tozasertib -0.002 | doramapimod 0.068 | bafetinib -0.097
active: [2] 0.261

SLC12A2 (UniProt P55011)
inactive: lapatinib -0.067 | pictilisib -0.015 | crizotinib -0.082 | [1] 0.111 | duvelisib -0.089 | gandotinib -0.083 | tozasertib -0.02 | doramapimod -0.003 | bafetinib -0.046 | [2] -0.032

SKA1 (UniProt Q96BD8)
inactive: lapatinib 0.001 | pictilisib 0.043 | crizotinib 0.009 | [1] -0.032 | duvelisib 0.042 | gandotinib 0.001 | tozasertib 0.086 | doramapimod 0.037 | bafetinib -0.029 | [2] 0.024

SLC20A1 (UniProt Q8WUM9)
inactive: lapatinib -0.002 | pictilisib -0.065 | crizotinib -0.009 | [1] 0.016 | duvelisib 0.038 | gandotinib -0.016 | tozasertib -0.006 | doramapimod 0.042 | bafetinib -0.075 | [2] -0.013

SIL1 (UniProt Q9H173)
inactive: lapatinib 0.006 | pictilisib -0.065 | crizotinib -0.042 | [1] -0.024 | duvelisib -0.002 | gandotinib 0.004 | tozasertib -0.047 | doramapimod -0.005 | bafetinib -0.058 | [2] 0.032

SIKE1 (UniProt Q9BRV8)
inactive: lapatinib 0.003 | pictilisib -0.039 | crizotinib -0.031 | [1] 0.047 | duvelisib 0.018 | gandotinib -0.009 | tozasertib 0.036 | doramapimod -0.072 | bafetinib -0.162 | [2] -0.053

SH3GLB1 isoform 2 (UniProt Q9Y371)
inactive: lapatinib 0.059 | pictilisib 0.03 | crizotinib 0.031 | [1] -0.004 | duvelisib -0.018 | gandotinib 0.055 | tozasertib 0.015 | doramapimod 0.142 | bafetinib -0.111 | [2] 0.062
